Part of at least one peptide drawing is inferred or uncertain, most often the ends. Some entries repeat one wording, which the source may state once for all of them. Some of these results come from one statement about several compounds together. Positions of bridges follow the written chain, without caps; N, C: chain ends. Residues, ends and D or L forms follow the SMILES beside them. No end group written: not given here.
Columns and labels:
endothelin-1 [1] = test: Effect of the peptides on endothelin induced vascular contraction (rat femoral artery strips); conditions: rat femoral artery strips contracted with endothelin-1 10^-9M; peptide added cumulatively; papaverine 10^-4M = 100% relaxation; Figures 10 - 12
endothelin-1 [2] = test: Inhibition of endothelin-induced increase of intracellular calcium ion concentration (FLUO-3AM fluorescence, FACScan); format: cell-based, mouse; conditions: for inhibition of endothelin-1 induced increase of intracellular calcium ion concentration (I): mouse 3T3 cells preincubated with peptide 200 µg/ml at 25°C for 20 minutes, then endothelin-1 10 ng/ml, relative fluorescence intensity for 80 seconds, Figures 5 and 6

| Compound | relaxation of endothelin-1 induced contraction of vascular smooth muscle (endothelin-1 [1]) | inhibition of endothelin-1 induced increase of intracellular calcium ion concentration (I) (endothelin-1 [2]) | inhibition of endothelin induced increase of intracellular calcium ion concentration (II) (endothelin-1 [2]; peptide 200, 40, 8, 1.6, 0.3 µg/ml preincubated with endothelin-1 (10 µg/ml in DMSO) at 25°C for 20 minutes, then added to mouse 3T3 cells at endothelin 10 ng/ml, Figures 7 to 9) |
| --- | --- | --- | --- |
| CC(C)C[C@@H]1NC(=O)[C@H](C)NC(=O)[C@@H](N)CSSC[C@@H](C(N)=O)NC(=O)[C@H](Cc2c[nH]c3ccccc23)NC(=O)[C@H](CO)NC(=O)[C@H](C)NC(=O)[C@H](C(C)C)NC(=O)[C@H](C)NC(=O)[C@H](CCCNC(=N)N)NC(=O)[C@H](Cc2ccc(O)cc2)NC(=O)[C@H](CCCNC(=N)N)NC(=O)[C@H](CC(=O)O)NC(=O)[C@H](C(C)C)NC(=O)[C@H](CO)NC1=O [C17] (H-CALSVDRYRAVASWC-NH2; disulfide 1-15) | inhibitory effect |  |  |
| CALSVDRYRAVASWGIPLITAIEI [C2] | inhibitory effect | inhibit the endothelin-1 induced increase of intracellular calcium ion concentration |  |
| FLGTTLRPPNLALP [C5] | inhibitory effect | inhibit the endothelin-1 induced increase of intracellular calcium ion concentration |  |
| IADNAERYSANLSSHV [C4] | inhibitory effect |  |  |
| LNRRNGSLRIALSEHLKNRREVA [C6] | inhibitory effect |  |  |
| QGIGIPLITAIEI [C3] | inhibitory effect | inhibit the endothelin-1 induced increase of intracellular calcium ion concentration |  |
| VALSVDRYRAVASW-NH2 [C18] | inhibitory effect |  |  |
| VLNLCALSVDGYRAVASWSRVI-NH2 [C14] | inhibitory effect |  |  |
| VLNLCALSVDRYGAVASWSRVI-NH2 [C13] | inhibitory effect |  |  |
| VLNLCALSVDRYRAVASGSRVI-NH2 [C12] | inhibitory effect |  |  |
| VLNLCALSVDRYRAVASWSRVI [C1] | inhibitory effect | inhibit the endothelin-1 induced increase of intracellular calcium ion concentration | inhibit the endothelin induced increase of intracellular calcium ion concentration |
| VLNLCALSVDRYRAVASWSRVI-NH2 [C11] | inhibitory effect |  |  |
| VLNLGALSVDRYRAVASWSRVI-NH2 [C15] | inhibitory effect |  |  |
